This is an account of results in patent publication US20100247579A1, “THERAPEUTIC AGENT FOR CANCER” (priority 2007, published 2010).

Experiment [1] relates to expanded lymphocytes derived from a human healthy donor. In words: Resistance to anticancer agents, WST-1 GI50 on cultured lymphocytes of a human healthy donor. The experiment is classed as cell-based. The following applies: Lymphocyte. The procedure:
(§1) On the other hand, the IL-2/5HRPMI was added to the control group in 50 μL/well each.
(§2) These culture plates were incubated at 37° C. for 20 hours in the presence of 5% CO2. After the incubation, WST-1 (Premix WST-1 Cell Proliferation Assay System, manufactured by Takara Bio Inc.) was added in 20 μL/well each to each well of the plate, and incubated in the presence of 5% CO2 at 37° C. for 4 hours. The plates after the incubation were centrifuged at 500×g at room temperature for 5 minutes. After the centrifugation, 100 μL of the supernatant was collected from each well, and the absorbance was measured at an absorption wavelength of 450 nm and a control wavelength of 630 nm [hereinafter referred to as the absorbance (450 nm-630 nm)] using a microplate reader (manufactured by Bio-Rad Laboratories, Inc., Model Number 680XR), and then the specific absorbance (450 nm-630 nm) was calculated according to the following formula.
(§3) Specific absorbance (450 nm-630 nm)=Absorbance of Test Cell Addition Group (450 nm-630 nm)−Absorbance of Control Group (450 nm-630 nm) Formula 2: […]
Here, a group where only OKT3 was immobilized to the culture equipment in the expansion of the lymphocytes was also set.
However, in the case of paclitaxel, a human AB type serum was used as a solvent for dilution, and for other drugs, 5HRPMI was used for dilution.
Background: Formazan colour is commonly taken as a measure of viable cells.

Experiment [2] relates to lymphocytes derived from cancer patient No. PT009 expanded with OKT3 and CH-296. Description: Resistance to anticancer agents, WST-1 GI50 on cultured lymphocytes of cancer patient No. PT009. It is filed as cell-based. The following applies: Homo sapiens, Lymphocyte, day 10 of culture with OKT3 and CH-296, 20 hours with drug. The procedure: After that, the suspension was stained by the trypan blue staining method to calculate the viable cell count, and then subjected to each experiment.
as §1, §2, §3

Like-named read-outs stand apart in the source and are kept apart here.

Consider `C[C@@H]1C[C@H]2[C@@H]3CCC4=CC(=O)C=C[C@]4(C)[C@@]3(F)[C@@H](O)C[C@]2(C)[C@@]1(O)C(=O)COP(=O)(O)O` [Dexamethasone Sodium Phosphate, dexamethasone sodium phosphate], for which the GI50 in experiment [1] (healthy donor lymphocytes expanded with OKT3 + CH-296, read-out: GI50 (μg/mL) Initial Stimulation OKT3 + CH-296) was determined as 119 µg/mL; in experiment [1] (healthy donor lymphocytes expanded with OKT3 alone, read-out: GI50 (μg/mL) Initial Stimulation OKT3) it was 86.3 µg/mL; in experiment [2], 38.9 µg/mL.
